Experimental data: PubChem BioAssay AID1508597 (Cure First, 2020)
Screen: 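Genes whose silencing sensitises or protects ovarian cancer cells against rucaparib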 (primary screen). Cells: human ovarian carcinoma lines grown from tumours: OCI-P5x (papillary serous) and OCI-C5x (clear cell). Reagents: siRNA pool against human genes, 1.25 pmol siRNA per well. Timing: 72 h or 96 h, depending on the cell culture. Challenge: rucaparib 20 µM (about IC30) or vehicle, present until read-out. Rucaparib or vehicle: Vehicle. Cell line: OCI-P5x (serous). Measurement: 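ATP luminescence measured at 72 or 96 h according to the culture, then normalised and expressed as percent viability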. Direction: viability, normalised: higher = more viable cells remaining. Active means: 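a well counts as a hit if its normalised viability is under 80 percent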. Meaning of the calls: active = viability under 80%; inactive = viability 80% or more.
This is a random part of the about 2,100 reagents, under one of the conditions tested. 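Calls flag viability under 80% in either arm, not effects specific to rucaparib; the reference for percent is not stated.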 A reagent listed more than once was tested more than once; the source does not tell the runs apart. The record does not give: the 100% reference.

| gene | technical replicate | viability, normalised (%) | activity call |
| --- | --- | --- | --- |
| TERF2 | 1 | 66.6 | active |
| TERF2 | 1 | 69.6 | active |
| TERF2 | 2 | 61.6 | active |
| TERF2 | 2 | 74.2 | active |
| TERF2 | 3 | 73.7 | active |
| TERF2 | 3 | 80.2 | inactive |
| TLE1 | 1 | 84.3 | inactive |
| TLE1 | 2 | 74 | active |
| TLE1 | 3 | 79.5 | active |
| DDX59 | 1 | 70.9 | active |
| DDX59 | 2 | 70.5 | active |
| DDX59 | 3 | 57.9 | active |
| STRADB | 1 | 68 | active |
| STRADB | 2 | 78.8 | active |
| STRADB | 3 | 80.8 | inactive |
| F7 | 1 | 58.3 | active |
| F7 | 2 | 59.9 | active |
| F7 | 3 | 61.8 | active |
| RAD18 | 1 | 46.5 | active |
| RAD18 | 1 | 48.8 | active |
| RAD18 | 2 | 50.3 | active |
| RAD18 | 2 | 45.4 | active |
| RAD18 | 3 | 69.5 | active |
| RAD18 | 3 | 43.7 | active |
| CTPS1 | 1 | 70.2 | active |
| CTPS1 | 2 | 56.1 | active |
| CTPS1 | 3 | 69.1 | active |

2 successive reagents from above, quoted:
| gene | technical replicate | viability, normalised (%) | activity call |
| --- | --- | --- | --- |
| TERF2 | 3 | 80.2 | inactive |
| TLE1 | 1 | 84.3 | inactive |

Continued.
| gene | technical replicate | viability, normalised (%) | activity call |
| --- | --- | --- | --- |
| UBE2I | 1 | 97.3 | inactive |
| UBE2I | 1 | 77.2 | active |
| UBE2I | 2 | 77.6 | active |
| UBE2I | 2 | 81.5 | inactive |
| UBE2I | 3 | 71.2 | active |
| UBE2I | 3 | 88.3 | inactive |
| CXXC1 | 1 | 71.3 | active |
| CXXC1 | 1 | 43 | active |
| CXXC1 | 2 | 50.5 | active |
| CXXC1 | 2 | 60.9 | active |
| CXXC1 | 3 | 74.9 | active |
| CXXC1 | 3 | 53.4 | active |
| PAF1 | 1 | 62.3 | active |
| PAF1 | 2 | 39.3 | active |
| PAF1 | 3 | 64.3 | active |
| INTS12 | 1 | 63.3 | active |
| INTS12 | 2 | 62.3 | active |
| INTS12 | 3 | 78.6 | active |
| SOX14 | 1 | 47.4 | active |
| SOX14 | 2 | 46.7 | active |
| SOX14 | 3 | 58.7 | active |
| RDM1 | 1 | 45.6 | active |
| RDM1 | 2 | 57.9 | active |
| RDM1 | 3 | 52.9 | active |
| NAP1L1 | 1 | 42.8 | active |
| NAP1L1 | 2 | 48.4 | active |
| NAP1L1 | 3 | 113 | inactive |
| DTX3L | 1 | 66 | active |
| DTX3L | 2 | 69.9 | active |
| DTX3L | 3 | 119 | inactive |
